PubChem BioAssay AID1671195, Yale University, 2021

Screen: 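Genes whose knockdown alters LDL uptake in liver cancer cells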 (primary screen)
Cells: human Huh7 hepatoma cells
Reagent: siRNA pool against human genes, 18 nM
Duration: about 2 to 2.5 days of knockdown, then 8 h LDL uptake
Treatment: DiI-labelled LDL at 30 µg/ml for 8 h, in lipoprotein-deficient serum medium
Read-out: 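Fluorescent LDL signal imaged in cells, scaled to the plate median, robust z-score for each replicate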
Direction: robust z-score: higher = more LDL uptake after knockdown
Rule for the call: 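Active when two or more replicates show a robust z-score above 2 or below -2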
Here is a random part of about 22,000 reagents tested. Over the whole deposit, about 1,510 (6.9%) got an active call. 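Active includes knockdowns raising or lowering LDL uptake; positive z-scores mean more uptake, negative mean less.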 The numbers tell different reagents against one gene apart.

| target | reagent | robust z-score, replicate 1 | robust z-score, replicate 2 | robust z-score, replicate 3 | outcome |
| --- | --- | --- | --- | --- | --- |
| LOC390855 (retired record) | 1 | -0.819 | -0.38 | -0.523 | inactive |
| SPMIP6 (sperm microtubule inner protein 6) | 1 | -0.145 | -0.162 | -0.342 | inactive |
| DENND1A (DENN domain containing 1A) | 1 | 0.22 | -0.215 | -1.2 | inactive |
| DNAJC28 (DnaJ heat shock protein family (Hsp40) member C28) | 1 | -1.11 | -1.47 | -0.774 | inactive |
| HS3ST3B1 (heparan sulfate-glucosamine 3-sulfotransferase 3B1) | 1 | 0.515 | 1.39 | 0.541 | inactive |
| GPR171 (G protein-coupled receptor 171) | 1 | 2.62 | 2.26 | 2.23 | active |
| VASP (vasodilator stimulated phosphoprotein) | 1 | -0.705 | 0.0369 | -0.944 | inactive |
| LOC391347 (retired record) | 1 | 0.494 | 0.573 | 0.689 | inactive |
| TBKBP1 (TBK1 binding protein 1) | 1 | -0.538 | -1.79 | -1.46 | inactive |
| PIH1D2 (PIH1 domain containing 2) | 1 | -0.62 | -0.661 | -1.43 | inactive |
| DYNC2I1 (dynein 2 intermediate chain 1) | 1 | -1.06 | 0.316 | -0.656 | inactive |
| RASA2 (RAS p21 protein activator 2) | 1 | 0.161 | -0.444 | -0.0884 | inactive |
| TXNDC8 (thioredoxin domain containing 8) | 1 | -0.537 | -0.921 | -1.17 | inactive |
| DNAH14 (dynein axonemal heavy chain 14) | 1 | 0.436 | 0.804 | 1.01 | inactive |
| DNAH14 (dynein axonemal heavy chain 14) | 2 | -0.929 | -0.526 | -0.633 | inactive |
| LOC440936 (retired record) | 1 | 0.363 | 1.1 | 1.37 | inactive |
| ZNRD2 (zinc ribbon domain containing 2) | 1 | 0.199 | -0.357 | -0.752 | inactive |
| AQP7P1 (aquaporin 7 pseudogene 1) | 1 | 2.35 | 2 | 2.35 | active |
| MT1DP (metallothionein 1D, pseudogene) | 1 | -0.762 | -0.609 | -0.739 | inactive |
| KLHL17 (kelch like family member 17) | 1 | 1.44 | 1.68 | 1.19 | inactive |
| NLRP11 (NLR family pyrin domain containing 11) | 1 | 1.98 | 1.27 | 2.28 | active |
| RAB7B (RAB7B, member RAS oncogene family) | 1 | 1.35 | 1.52 | 0.379 | inactive |
| RPL6 (ribosomal protein L6) | 1 | -1.78 | -1.3 | -1.84 | inactive |
| CEP170 (centrosomal protein 170) | 1 | 1.13 | 1.59 | -0.253 | inactive |
| ADGRE4P (adhesion G protein-coupled receptor E4, pseudogene) | 1 | 1.76 | 3.72 | 3.21 | active |
| RNMT (RNA guanine-7 methyltransferase) | 1 | 0.316 | 0.342 | 0.112 | inactive |
| CCDC102B (coiled-coil domain containing 102B) | 1 | -1.12 | -1.16 | -0.734 | inactive |
| CEP19 (centrosomal protein 19) | 1 | -0.196 | 0.353 | 0.0511 | inactive |
